These results are taken from PubChem BioAssay AID493014 (National Center for Advancing Translational Sciences (NCATS), 2011).

Some of the results follow. The main result of the screen is listed elsewhere. These columns were measured beside it and carry no call. The list favours compounds with an active or inconclusive main result. Potencies come from curve fits of mixed quality, noted in brackets.

The test is described as follows: qHTS Assay to Find Inhibitors of Chronic Active B-Cell Receptor Signaling. Conditions: ABC-DLBCL IkBa-CBG/CBR reporter, luminescence ratio (green luciferase fused to IkBa over red control in TMD8 lymphoma cells), 4 h. The method in brief:
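Compounds up to 46 uM were incubated four hours with TMD8 cells whose green CBG68 luciferase is fused to IkappaBalpha; red CBR luminescence normalised the signal, and concentration-effect curves were fitted to fusion, red and ratio data.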

[1] abbreviates: measured here: CBR red luminescence, cell number.
[2] abbreviates: measured here: IkBa-CBG green luminescence.

In the case of `C=CCc1ccccc1OCCCCN1CCCC1`, the AC50 is, setting by setting: under setting [1], 23.1 µM [rising, partial curve, poor fit]; under setting [2], 20.6 µM [falling, partial curve, poor fit].

As for `COc1ccc(NC(=S)NCc2ccc3c(c2)cc(C)n3C)cc1`, the AC50 under setting [1] was 23.1 µM [rising, partial curve, poor fit].

With `CCOc1ccccc1NC(=O)C1CCCN(C(=O)NCc2ccccc2)C1` (centres undefined), under setting [1], the AC50 was 0.82 µM [rising, full curve, poor fit].

As for `C=CCc1ccc(OCCCCNC(C)CC)c(OC)c1` (centres undefined), the AC50 under setting [1] was 1.03 µM [rising, full curve, poor fit].

Consider `COc1ccccc1N1CCN(C(=O)c2sc3ncnc(N4CCN(c5ccccn5)CC4)c3c2C)CC1`, for which the AC50 under setting [1] was 3.16 µM [rising, single point].

On to `COc1cccc(NC(=O)Cn2c3ccc(F)cc3c3nc4n(c(=O)c32)CCS4)c1`, for which, under setting [1], the AC50 is 12.6 µM [falling, partial curve].

Regarding `COCCn1c(SCC(=O)Nc2ncc(C)s2)nc2sc3c(c2c1=O)CCC3`, the half-maximal activity concentration (AC50) under setting [1] is 16.4 µM [falling, partial curve] and the half-maximal activity concentration (AC50) under setting [2] is 14.6 µM [rising, partial curve, poor fit].

For `Clc1ccc(CSCCc2ccncc2)cc1`, the concentration at half-maximal activity (AC50) under setting [1] is 0.00411 µM [rising, full curve, poor fit].

As for `O=C(CSc1ncnc2sc3c(c12)CCC3)N1CCOCC1`, the half-maximal activity concentration (AC50) under setting [1] was 10 µM [rising, partial curve, poor fit].

On to `O=[N+]([O-])c1cc(S(=O)(=O)Nc2cccc(C(F)(F)F)c2)ccc1-n1nnc2ccccc21`, for which, under setting [1], the half-maximal activity concentration (AC50) is 18.4 µM [falling, partial curve, poor fit].

Turning to `O=C1c2cccc3c(N4CCCCC4)ccc(c23)C(=O)N1c1ccc(O)cc1`, under setting [1], the AC50 was 0.251 µM [rising, full curve, poor fit].

On to `COc1ccc(C(CC(=O)Nc2cc(OC)cc(OC)c2)n2cccc2)cc1` (centres undefined), for which, under setting [1], the concentration at half-maximal activity (AC50) was 20.6 µM [falling, single point].

As to `O=C(NC1CCCCCC1)c1ccc(N2CCCC2=O)cc1`, under setting [1], the AC50 is 11.2 µM [falling, partial curve].

Turning to `COc1cccc2c1OC1(C)CC2/C(=C(\C)O)C(=O)N1` (centres undefined), the AC50 under setting [1] was 35.5 µM [falling, partial curve, poor fit].

Take `O=C(Nc1ccc2ccccc2c1)c1ccccc1F`: the AC50 under setting [1] was 35.5 µM [falling, single point].

Regarding `O=C(CN1C(=O)S/C(=C/c2ccncc2)C1=O)Nc1ccccc1`, the AC50 under setting [1] was 11.2 µM [falling, partial curve].

On to `CC(C)c1cc(C(F)(F)F)n2nc(C(=O)O)cc2n1`, for which the AC50 under setting [1] was 32.6 µM [rising, single point].
